# Publication doi:10.1101/2022.04.06.487260
# By UniProt entry, the sequences of proteins in these tests, tags left out. Where a name states a change or a piece, a line headed by the entry shows the natural chain unless it says otherwise. Chains listed by the source or under a name are the forms on record and can include a tag or linker.
# His-tagged Talin F2F3 (206-405, C336S) (Q9Y490, form named): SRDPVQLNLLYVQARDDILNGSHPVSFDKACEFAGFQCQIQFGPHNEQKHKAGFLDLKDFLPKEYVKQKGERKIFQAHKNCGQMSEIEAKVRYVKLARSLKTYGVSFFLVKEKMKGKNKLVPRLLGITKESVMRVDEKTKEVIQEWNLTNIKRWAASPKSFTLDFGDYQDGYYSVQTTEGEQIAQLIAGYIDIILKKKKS
# Results are given in words; binding and its absence hold for the method and conditions named.
# B1: FAT domain of human FAK (892-1052) (domain or fragment, UniProt Q05397 892-1052)
# chain: SSPADSYNEGVKLQPQEISPPPTANLDRSNDKVYENVTGLVKAVIEMSSKIQPAPPEEYVPMVKEVGLALRTLLATVDETIPLLPASTHREIEMAQKLLNSDLGELINKMKLAQQYVMTSLQQEYKKQMLTAAHALAVDAKNLLDVIDQARLKMLGQTRPH
# Biological target: His-tagged Talin F2F3 (206-405, C336S) (UniProt Q9Y490)
# Experiment: pull-down
binder,measurement,value
B1,binding,no binding
